Reference: PubChem BioAssay AID1259261 (Sanger Institute, 2017)
In all, the deposit lists 794 reagents; below is a random part of them. 10 of them (1.3%) were called active. 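Calls reflect knock-down alone without drug; synergy scores with BYL719, cetuximab or trametinib do not affect calls.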 No viability above 1 is reported: the scale is capped. Not all columns of the deposit are shown. Reagent sequences are not shown. The record does not give: the amount of reagent, the time to read-out.

- Assay: 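siRNA screen across the kinome for kinases that are essential and partners synergising with drugs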 (primary screen)
- Cell system: HCC2998 human colorectal cancer cells
- Reagent: siRNA pool against human genes
- Challenge: anchor drugs BYL719 1 µM, cetuximab 5 µg/ml or trametinib 10 nM, each compared with DMSO vehicle
- Measurement: 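Cell viability relative to non-targeting siRNA, averaged over replicates, with robust z-score for siRNA alone and synergy scores with each anchor drug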
- Scale: viability z-score, knock-down alone: higher = more viable cells than controls; viability fraction, knock-down alone: higher = more viable cells; synergy score with BYL719: higher = stronger combined killing with BYL719; synergy score with trametinib: higher = stronger combined killing with trametinib
- Call rule: 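Essential when the siRNA-alone viability robust z-score is below -3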
- Calls: active = essential; inactive = no change

target,PubChem SID,"viability z-score, knock-down alone","viability fraction, knock-down alone",synergy score with BYL719,synergy score with trametinib,Outcome
GK,SID56479100,0.349,0.893,-0.16,-0.109,inactive
BTK,SID56478487,0.324,0.89,-0.017,-0.0568,inactive
CDK18,SID56478887,-1.97,0.602,-0.112,-0.104,inactive
PKN3,SID56478823,0.334,0.891,0.157,0.113,inactive
MAST3,SID152151496,-0.672,0.765,-0.124,0.0633,inactive
EPHA10,SID135620971,-1.7,0.635,-0.0901,0.169,inactive
ADK,SID56478860,1.1,0.987,-0.0406,0.0077,inactive
NEK4,SID152155431,-2.34,0.556,-0.0705,-0.0272,inactive
IRAK3,SID56478864,-1.22,0.695,0.0341,0.0399,inactive
SGK1,SID152156682,0.0981,0.861,-0.0829,-0.0177,inactive
PRKAA1,SID152155693,0.136,0.866,-0.0369,0.0691,inactive
STRADB,SID135620967,-0.27,0.815,-0.0968,0.0472,inactive
MUSK,SID56478536,-2.8,0.497,-0.0532,0.0304,inactive
TAOK2,SID57288958,1.21,1,-0.106,-0.0135,inactive
PRKCH,SID56478829,-0.948,0.73,-0.0442,0.000919,inactive
BRD4,SID152154839,0.644,0.93,-0.0884,-0.0103,inactive
FGR,SID135620620,-0.383,0.801,-0.0707,0.0852,inactive
UHMK1,SID152150381,0.0914,0.86,0.0865,-0.0211,inactive
MVK,SID56479115,0.324,0.889,-0.0468,0.0277,inactive
ACSL6,SID152156030,-0.304,0.811,-0.12,-0.123,inactive
PIP5K1A,SID56478868,0.225,0.877,-0.0463,0.0623,inactive
SIK3,SID135620886,0.995,0.974,-0.132,-0.0174,inactive
CHEK1,SID152148697,-2.65,0.517,-0.06,-0.106,inactive
GOLGA5,SID134315128,0.906,0.962,-0.101,0.0221,inactive
AKAP9,SID134321301,0.101,0.862,-0.0166,0.0289,inactive
NEK11,SID152147168,-0.739,0.756,0.004,0.137,inactive
MYO3A,SID152148134,1.21,1,0.00127,-0.039,inactive
NTN4,SID152155179,-0.599,0.774,-0.0284,0.113,inactive
UCK2,SID56478981,1.05,0.981,0.0359,0.0468,inactive

Quoted from above for reference:
target,PubChem SID,"viability z-score, knock-down alone","viability fraction, knock-down alone",synergy score with BYL719,synergy score with trametinib,Outcome
CHEK1,SID152148697,-2.65,0.517,-0.06,-0.106,inactive
GOLGA5,SID134315128,0.906,0.962,-0.101,0.0221,inactive
AKAP9,SID134321301,0.101,0.862,-0.0166,0.0289,inactive

Additional reagents follow.
target,PubChem SID,"viability z-score, knock-down alone","viability fraction, knock-down alone",synergy score with BYL719,synergy score with trametinib,Outcome
RPS6KA3,SID152150758,0.837,0.954,-0.0312,0.0255,inactive
PIP5K1B,SID152154468,0.402,0.899,0.0611,0.14,inactive
DSTYK,SID152147164,1.21,1,-0.0795,0.0143,inactive
SRPK2,SID56478890,0.396,0.898,0.0755,-0.0433,inactive
NEK1,SID152155530,-0.202,0.824,-0.226,-0.0661,inactive
CLK1,SID152154455,1.03,0.978,-0.0611,0.0342,inactive
CAMK1D,SID152153083,1.21,1,0.0622,0.108,inactive
GSK3B,SID56478468,1.18,0.997,-0.112,0.00348,inactive
PKN1,SID56478783,0.0517,0.855,-0.0144,-0.0544,inactive
PRAG1,SID152147410,-0.522,0.783,-0.191,-0.0187,inactive
SHPK,SID135621260,1.21,1,-0.0505,0.0742,inactive
ALK,SID56478483,0.561,0.919,0.0795,0.166,inactive
AXIN2,SID135621652,0.769,0.945,-0.00585,0.132,inactive
BRSK1,SID135620852,-0.055,0.842,-0.0656,0.123,inactive
CAMK2G,SID56478805,0.325,0.89,-0.0976,-0.168,inactive
PRKCG,SID56478828,-0.0344,0.845,-0.0798,-0.00935,inactive
LRRK1,SID135620970,-0.988,0.725,-0.101,0.0214,inactive
CASK,SID56479000,0.383,0.897,-0.00918,0.0915,inactive
CKMT1B,SID135621236,-0.206,0.823,-0.138,-0.0215,inactive
BMPR1B,SID56478926,0.724,0.94,-0.0886,0.0287,inactive
AKT2,SID135620600,0.859,0.957,0.141,0.186,inactive
